From publication PMC10719366
These are yes or no findings as the source states them, for the method shown. In cells and extracts the contact can be indirect. Some binding calls cover weakened binding; strength is not graded here. Blank lines part the entries; values can stand above or below the substance they belong to.

Amino acid sequences for entries named in this document (tags omitted). A change or cut given only in a name is not applied to a line headed by its entry. Chains listed by the source or under a name are the forms on record and can include a tag or linker. Residues count along the entry.
UniProt P31421, residues 19-872: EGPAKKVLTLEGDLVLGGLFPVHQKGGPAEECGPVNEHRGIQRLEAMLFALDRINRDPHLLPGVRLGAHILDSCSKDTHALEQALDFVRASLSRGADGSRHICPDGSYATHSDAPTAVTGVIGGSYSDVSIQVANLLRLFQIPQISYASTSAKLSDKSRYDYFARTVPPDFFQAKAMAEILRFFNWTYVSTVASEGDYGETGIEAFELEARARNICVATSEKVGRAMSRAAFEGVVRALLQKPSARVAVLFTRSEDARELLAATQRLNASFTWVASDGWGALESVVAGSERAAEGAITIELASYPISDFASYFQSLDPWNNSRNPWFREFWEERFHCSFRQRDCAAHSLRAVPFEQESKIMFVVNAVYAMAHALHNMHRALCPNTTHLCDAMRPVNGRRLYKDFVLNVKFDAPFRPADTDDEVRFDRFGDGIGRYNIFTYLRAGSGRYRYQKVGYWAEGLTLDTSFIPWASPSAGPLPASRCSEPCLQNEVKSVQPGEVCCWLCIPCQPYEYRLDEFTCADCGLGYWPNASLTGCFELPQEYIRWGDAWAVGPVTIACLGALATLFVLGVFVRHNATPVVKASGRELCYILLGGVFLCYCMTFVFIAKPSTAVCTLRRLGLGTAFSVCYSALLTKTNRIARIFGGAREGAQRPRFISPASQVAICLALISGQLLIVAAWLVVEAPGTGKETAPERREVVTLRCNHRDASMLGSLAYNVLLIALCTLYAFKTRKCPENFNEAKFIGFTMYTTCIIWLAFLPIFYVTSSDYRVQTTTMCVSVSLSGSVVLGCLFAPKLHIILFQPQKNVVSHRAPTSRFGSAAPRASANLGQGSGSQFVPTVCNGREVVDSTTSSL
SNAP-mGluR4 (P31423, residues 33-912): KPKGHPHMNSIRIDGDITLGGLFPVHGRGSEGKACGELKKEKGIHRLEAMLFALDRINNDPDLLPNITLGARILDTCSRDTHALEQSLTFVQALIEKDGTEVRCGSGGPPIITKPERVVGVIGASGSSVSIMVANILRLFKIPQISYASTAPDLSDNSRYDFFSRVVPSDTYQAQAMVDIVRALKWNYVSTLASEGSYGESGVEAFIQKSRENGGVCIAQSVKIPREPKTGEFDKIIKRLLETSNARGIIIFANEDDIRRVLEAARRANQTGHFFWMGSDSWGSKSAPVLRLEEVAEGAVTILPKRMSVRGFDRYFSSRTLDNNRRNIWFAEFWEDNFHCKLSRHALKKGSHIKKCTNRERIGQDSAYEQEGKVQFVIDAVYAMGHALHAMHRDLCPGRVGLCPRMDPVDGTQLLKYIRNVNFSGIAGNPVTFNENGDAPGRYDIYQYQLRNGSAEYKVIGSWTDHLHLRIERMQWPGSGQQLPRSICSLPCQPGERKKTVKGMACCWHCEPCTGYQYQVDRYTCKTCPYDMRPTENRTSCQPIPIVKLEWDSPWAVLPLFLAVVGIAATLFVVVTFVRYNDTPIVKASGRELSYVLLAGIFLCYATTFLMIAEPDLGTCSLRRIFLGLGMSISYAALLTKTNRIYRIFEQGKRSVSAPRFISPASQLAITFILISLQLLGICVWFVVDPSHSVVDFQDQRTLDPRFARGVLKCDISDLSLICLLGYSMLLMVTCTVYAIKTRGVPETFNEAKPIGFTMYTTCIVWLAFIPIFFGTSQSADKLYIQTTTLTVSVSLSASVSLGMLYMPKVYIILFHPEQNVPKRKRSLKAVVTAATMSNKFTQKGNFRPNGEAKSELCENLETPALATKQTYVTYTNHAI
SNAP-mGluR4(G131T, G137T, G140E) (P31423, form named): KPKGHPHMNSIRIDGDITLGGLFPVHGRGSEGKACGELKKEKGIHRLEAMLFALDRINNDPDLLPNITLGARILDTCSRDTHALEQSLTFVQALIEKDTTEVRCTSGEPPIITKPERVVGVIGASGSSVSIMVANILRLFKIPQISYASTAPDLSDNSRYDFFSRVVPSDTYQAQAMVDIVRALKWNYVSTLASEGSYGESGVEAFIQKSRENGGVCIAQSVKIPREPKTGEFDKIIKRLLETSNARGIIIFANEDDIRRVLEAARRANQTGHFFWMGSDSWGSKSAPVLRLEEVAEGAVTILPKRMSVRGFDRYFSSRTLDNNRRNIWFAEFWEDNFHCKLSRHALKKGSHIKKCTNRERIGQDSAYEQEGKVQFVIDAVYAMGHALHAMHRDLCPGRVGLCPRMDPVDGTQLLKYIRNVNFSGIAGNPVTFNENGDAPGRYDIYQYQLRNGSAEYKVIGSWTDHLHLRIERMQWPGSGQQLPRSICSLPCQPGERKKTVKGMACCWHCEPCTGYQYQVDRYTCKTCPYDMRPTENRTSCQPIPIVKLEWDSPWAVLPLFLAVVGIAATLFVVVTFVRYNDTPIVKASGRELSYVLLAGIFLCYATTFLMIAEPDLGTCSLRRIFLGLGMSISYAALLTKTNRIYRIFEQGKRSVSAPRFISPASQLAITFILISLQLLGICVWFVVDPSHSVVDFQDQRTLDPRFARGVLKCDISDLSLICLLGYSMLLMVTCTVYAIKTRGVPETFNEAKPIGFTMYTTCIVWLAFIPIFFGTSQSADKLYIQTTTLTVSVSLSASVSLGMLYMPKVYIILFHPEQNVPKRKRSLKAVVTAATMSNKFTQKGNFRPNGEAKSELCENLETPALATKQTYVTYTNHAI
SNAP-mGluR7 (P35400, residues 35-915): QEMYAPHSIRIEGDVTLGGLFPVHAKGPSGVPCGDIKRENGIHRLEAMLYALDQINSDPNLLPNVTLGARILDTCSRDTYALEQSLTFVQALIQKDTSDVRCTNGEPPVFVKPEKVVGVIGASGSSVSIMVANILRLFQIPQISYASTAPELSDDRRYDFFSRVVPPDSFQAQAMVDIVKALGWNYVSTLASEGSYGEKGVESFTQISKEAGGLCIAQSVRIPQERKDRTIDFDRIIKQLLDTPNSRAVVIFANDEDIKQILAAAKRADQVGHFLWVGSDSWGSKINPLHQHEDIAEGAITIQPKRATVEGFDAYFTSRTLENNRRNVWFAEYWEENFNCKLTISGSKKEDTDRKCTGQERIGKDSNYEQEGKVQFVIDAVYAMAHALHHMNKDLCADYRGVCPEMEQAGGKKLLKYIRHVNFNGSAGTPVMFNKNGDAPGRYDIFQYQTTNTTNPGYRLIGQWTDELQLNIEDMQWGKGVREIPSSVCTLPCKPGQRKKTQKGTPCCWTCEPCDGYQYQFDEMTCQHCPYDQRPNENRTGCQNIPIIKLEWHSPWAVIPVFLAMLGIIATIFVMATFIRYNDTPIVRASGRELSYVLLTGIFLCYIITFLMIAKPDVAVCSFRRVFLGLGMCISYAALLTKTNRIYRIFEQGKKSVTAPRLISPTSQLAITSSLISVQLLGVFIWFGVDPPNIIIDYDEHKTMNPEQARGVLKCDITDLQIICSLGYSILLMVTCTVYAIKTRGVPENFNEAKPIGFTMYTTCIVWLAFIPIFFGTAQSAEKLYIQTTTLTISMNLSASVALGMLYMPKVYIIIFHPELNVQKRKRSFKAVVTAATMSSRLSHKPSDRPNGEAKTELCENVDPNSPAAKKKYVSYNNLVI
SNAP-mGluR7(T131G, T137G, E140G) (P35400, form named): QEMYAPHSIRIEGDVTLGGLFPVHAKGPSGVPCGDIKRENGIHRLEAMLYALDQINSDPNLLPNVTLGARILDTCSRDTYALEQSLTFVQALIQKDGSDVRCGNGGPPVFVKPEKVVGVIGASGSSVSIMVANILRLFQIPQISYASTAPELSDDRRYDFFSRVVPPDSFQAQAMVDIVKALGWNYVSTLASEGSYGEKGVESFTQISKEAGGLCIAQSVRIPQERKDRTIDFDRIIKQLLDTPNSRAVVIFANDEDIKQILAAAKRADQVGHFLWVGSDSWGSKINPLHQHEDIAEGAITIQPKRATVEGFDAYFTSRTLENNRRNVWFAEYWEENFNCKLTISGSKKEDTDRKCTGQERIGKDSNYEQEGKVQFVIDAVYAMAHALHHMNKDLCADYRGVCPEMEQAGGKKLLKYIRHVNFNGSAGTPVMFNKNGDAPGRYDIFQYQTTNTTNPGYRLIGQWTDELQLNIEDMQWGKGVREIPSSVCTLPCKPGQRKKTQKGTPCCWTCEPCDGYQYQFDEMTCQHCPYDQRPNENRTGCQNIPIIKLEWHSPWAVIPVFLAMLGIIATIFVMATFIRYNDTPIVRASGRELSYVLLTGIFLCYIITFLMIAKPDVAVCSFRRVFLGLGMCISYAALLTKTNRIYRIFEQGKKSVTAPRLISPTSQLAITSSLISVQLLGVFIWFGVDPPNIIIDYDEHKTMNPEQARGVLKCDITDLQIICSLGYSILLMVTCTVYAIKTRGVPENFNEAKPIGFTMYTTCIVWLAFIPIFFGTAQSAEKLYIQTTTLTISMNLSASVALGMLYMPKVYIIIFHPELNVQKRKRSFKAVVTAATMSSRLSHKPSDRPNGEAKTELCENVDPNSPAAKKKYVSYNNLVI
UniProt P70579, residues 34-908: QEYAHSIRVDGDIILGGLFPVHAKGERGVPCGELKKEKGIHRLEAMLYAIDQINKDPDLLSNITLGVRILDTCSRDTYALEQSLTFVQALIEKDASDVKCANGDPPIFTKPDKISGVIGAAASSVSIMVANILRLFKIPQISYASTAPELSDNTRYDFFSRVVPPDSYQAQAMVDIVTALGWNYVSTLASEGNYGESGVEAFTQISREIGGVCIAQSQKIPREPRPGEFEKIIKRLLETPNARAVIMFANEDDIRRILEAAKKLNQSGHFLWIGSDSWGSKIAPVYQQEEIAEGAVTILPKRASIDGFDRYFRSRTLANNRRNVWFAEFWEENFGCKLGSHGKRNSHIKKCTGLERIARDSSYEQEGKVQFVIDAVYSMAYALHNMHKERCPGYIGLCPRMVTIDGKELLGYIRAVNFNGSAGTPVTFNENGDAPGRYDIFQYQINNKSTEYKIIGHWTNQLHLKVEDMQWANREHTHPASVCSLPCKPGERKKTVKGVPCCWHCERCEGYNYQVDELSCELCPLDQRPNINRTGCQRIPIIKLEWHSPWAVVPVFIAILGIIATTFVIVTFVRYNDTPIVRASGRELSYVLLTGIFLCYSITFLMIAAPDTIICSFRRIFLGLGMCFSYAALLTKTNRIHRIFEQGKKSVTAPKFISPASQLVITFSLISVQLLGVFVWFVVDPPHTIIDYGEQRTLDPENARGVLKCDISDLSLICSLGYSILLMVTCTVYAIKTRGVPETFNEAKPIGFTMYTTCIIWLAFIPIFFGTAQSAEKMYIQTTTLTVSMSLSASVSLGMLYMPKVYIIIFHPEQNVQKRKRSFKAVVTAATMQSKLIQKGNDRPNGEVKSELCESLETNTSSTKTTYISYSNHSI

Experiments:
SNAP-mGluR2 (rat) = SNAP-mGluR2 (rat) (UniProt P31421); experiment: FRET or BRET; single-molecule FRET (TIRF) between donor and acceptor BG dyes on the SNAP tags of the two subunits of a homodimer; receptors labelled on HEK293T cells, lysed in 1.2% IGEPAL, held on PEG-passivated coverslips by anti-mGluR2, anti-mGluR7 or anti-HA antibody; imaging buffer pH 7.4 with 0.04% IGEPAL; 0 to 100 mM glutamate
CLIP-mGluR2 (rat) = CLIP-mGluR2 (rat) (UniProt P31421); experiment: FRET or BRET; single-molecule FRET (TIRF) between a dye on the CLIP tag of mGluR2 and a dye on the SNAP tag of the co-expressed mGluR7 or mGluR4 subunit; receptors labelled on HEK293T cells, lysed in 1.2% IGEPAL, held on PEG-passivated coverslips by antibody; 0 to 100 mM glutamate, 1 uM LY379268 or 10 uM LSP4-2022
SNAP-mGluR4 (rat) = SNAP-mGluR4 (rat) (UniProt P31423); experiment: FRET or BRET; single-molecule FRET (TIRF) between donor and acceptor BG dyes on the SNAP tags of the two subunits of a homodimer; receptors labelled on HEK293T cells, lysed in 1.2% IGEPAL, held on PEG-passivated coverslips by anti-mGluR2, anti-mGluR7 or anti-HA antibody; imaging buffer pH 7.4 with 0.04% IGEPAL; 0 to 100 mM glutamate
SNAP-mGluR7 (rat) = SNAP-mGluR7 (rat) (UniProt P35400); experiment: as above
[1] = biological target: SNAP-mGluR7(mGluR4 residues 202–271) (rat) (UniProt P35400+P31423); experiment: as above
SNAP-mGluR8 (rat) = SNAP-mGluR8 (rat) (UniProt P70579); experiment: as above

Substance: SNAP-mGluR7 (from UniProt P35400 35-915) (receptor)
binding (CLIP-mGluR2 (rat)): binds
binding (SNAP-mGluR7 (rat)): binds

Substance: SNAP-mGluR7(T131G, T137G, E140G) (from UniProt P35400 35-915) (receptor)
binding (CLIP-mGluR2 (rat)): binds

Substance: SNAP-mGluR7(mGluR4 residues 202–271) (from UniProt P35400 35-201; P31423 202-271; P35400 274-915) (receptor)
binding [1]: binds

Substance: SNAP-mGluR8 (from UniProt P70579 34-908) (receptor)
binding (SNAP-mGluR8 (rat)): binds

Continued, values first:

binding (SNAP-mGluR2 (rat)): binds
Substance: SNAP-mGluR2 (from UniProt P31421 19-872) (receptor)

binding (CLIP-mGluR2 (rat)): binds
binding (SNAP-mGluR4 (rat)): binds
Substance: SNAP-mGluR4 (from UniProt P31423 33-912) (receptor)

binding (CLIP-mGluR2 (rat)): binds
Substance: SNAP-mGluR4(G131T, G137T, G140E) (from UniProt P31423 33-912) (receptor)
